In the supplement of paper PMC12067093, “Discovery and optimisation of a covalent ligand for TRIM25 and its application to targeted protein ubiquitination” (Chemical Science, 2025):
Some of the results follow.

By UniProt entry, the sequences of proteins in these tests, tags left out. Where a name states a change or a piece, a line headed by the entry shows the natural chain unless it says otherwise.
UniProt Q9UJV9: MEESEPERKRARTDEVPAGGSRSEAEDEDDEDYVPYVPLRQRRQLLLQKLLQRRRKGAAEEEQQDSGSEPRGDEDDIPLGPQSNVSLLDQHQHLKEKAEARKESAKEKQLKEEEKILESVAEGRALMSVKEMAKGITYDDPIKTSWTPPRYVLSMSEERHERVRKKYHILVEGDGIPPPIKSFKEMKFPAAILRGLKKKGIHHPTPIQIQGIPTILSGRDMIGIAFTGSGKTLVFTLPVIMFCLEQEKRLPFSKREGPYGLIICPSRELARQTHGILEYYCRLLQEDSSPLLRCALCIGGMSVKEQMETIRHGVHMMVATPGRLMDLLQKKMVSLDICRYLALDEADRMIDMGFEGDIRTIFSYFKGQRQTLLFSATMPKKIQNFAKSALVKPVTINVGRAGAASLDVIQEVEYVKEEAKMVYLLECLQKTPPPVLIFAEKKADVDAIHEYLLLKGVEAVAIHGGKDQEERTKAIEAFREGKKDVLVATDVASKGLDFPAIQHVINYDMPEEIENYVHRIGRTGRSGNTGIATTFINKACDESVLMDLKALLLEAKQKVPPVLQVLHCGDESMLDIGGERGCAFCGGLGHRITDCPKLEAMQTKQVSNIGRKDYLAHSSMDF
UniProt Q9GZR7: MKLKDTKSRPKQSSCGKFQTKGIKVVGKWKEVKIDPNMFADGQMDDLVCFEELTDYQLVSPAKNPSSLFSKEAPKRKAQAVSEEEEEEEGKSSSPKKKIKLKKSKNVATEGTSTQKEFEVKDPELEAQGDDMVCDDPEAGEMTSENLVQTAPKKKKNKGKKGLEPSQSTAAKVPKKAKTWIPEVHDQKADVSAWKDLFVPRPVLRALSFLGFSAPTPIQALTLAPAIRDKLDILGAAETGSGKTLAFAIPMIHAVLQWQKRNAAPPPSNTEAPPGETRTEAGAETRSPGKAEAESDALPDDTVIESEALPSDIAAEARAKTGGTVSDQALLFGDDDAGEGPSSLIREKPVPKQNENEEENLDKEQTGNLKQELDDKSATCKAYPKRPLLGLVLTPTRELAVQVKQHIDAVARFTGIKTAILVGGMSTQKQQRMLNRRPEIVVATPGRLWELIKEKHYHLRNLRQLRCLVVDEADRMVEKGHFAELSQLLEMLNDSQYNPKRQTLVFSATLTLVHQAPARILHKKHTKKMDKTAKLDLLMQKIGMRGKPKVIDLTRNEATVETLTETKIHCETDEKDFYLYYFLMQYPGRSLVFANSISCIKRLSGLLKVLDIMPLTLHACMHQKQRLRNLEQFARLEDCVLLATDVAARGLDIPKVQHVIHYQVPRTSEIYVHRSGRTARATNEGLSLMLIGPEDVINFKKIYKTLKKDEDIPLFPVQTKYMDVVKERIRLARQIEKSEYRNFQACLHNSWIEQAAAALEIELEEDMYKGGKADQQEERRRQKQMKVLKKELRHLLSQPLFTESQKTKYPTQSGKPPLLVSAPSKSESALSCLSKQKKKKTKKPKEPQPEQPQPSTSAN
UniProt Q9NR30: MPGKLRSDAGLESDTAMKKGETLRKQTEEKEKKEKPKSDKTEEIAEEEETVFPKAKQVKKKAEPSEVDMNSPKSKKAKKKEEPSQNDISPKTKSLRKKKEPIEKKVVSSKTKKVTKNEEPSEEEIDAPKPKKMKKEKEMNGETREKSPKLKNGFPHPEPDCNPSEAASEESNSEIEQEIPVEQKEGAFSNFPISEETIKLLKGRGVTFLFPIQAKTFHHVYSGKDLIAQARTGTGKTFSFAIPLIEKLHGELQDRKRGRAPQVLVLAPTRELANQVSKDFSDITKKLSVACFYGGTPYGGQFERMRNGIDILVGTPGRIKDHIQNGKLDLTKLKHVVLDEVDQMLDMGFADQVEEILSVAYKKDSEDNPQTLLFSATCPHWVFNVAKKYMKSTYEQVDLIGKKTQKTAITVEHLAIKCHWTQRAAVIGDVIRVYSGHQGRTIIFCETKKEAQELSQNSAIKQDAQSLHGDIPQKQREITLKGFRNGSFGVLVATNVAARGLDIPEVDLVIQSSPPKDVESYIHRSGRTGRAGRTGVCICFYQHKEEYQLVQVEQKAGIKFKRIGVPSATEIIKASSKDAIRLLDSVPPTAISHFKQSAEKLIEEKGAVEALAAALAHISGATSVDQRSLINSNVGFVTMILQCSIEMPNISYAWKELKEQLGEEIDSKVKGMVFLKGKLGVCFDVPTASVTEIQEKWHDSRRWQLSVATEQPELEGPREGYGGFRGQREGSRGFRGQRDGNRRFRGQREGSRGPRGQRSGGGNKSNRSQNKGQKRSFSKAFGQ
UniProt Q7L014: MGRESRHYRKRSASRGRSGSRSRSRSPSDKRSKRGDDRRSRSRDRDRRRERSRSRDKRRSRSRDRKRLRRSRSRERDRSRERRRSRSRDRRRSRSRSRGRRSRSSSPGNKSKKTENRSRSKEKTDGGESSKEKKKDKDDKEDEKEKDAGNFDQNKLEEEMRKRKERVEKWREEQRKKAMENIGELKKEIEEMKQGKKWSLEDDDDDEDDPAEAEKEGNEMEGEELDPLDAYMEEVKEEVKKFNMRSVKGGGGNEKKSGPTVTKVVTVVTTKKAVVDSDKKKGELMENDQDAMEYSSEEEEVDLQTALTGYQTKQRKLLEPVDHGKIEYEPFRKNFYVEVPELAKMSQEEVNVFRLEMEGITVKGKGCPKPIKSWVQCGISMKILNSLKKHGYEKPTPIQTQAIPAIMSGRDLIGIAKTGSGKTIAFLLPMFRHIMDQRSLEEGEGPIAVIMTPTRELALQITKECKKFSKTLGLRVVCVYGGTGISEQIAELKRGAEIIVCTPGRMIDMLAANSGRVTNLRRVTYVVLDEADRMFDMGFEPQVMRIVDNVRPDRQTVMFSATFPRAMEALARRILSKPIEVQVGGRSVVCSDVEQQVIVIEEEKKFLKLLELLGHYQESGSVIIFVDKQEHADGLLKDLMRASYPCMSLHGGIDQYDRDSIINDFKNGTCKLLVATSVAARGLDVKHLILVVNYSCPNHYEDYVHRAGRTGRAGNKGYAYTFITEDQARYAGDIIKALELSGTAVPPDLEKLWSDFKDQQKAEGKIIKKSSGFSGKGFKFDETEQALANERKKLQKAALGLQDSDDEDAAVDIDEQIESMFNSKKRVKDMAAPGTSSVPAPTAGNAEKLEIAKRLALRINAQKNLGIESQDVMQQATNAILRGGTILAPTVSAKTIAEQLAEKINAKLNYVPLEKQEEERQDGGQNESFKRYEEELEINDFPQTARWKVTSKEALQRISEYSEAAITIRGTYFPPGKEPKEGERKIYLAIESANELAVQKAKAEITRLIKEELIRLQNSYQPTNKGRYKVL
UniProt P26196: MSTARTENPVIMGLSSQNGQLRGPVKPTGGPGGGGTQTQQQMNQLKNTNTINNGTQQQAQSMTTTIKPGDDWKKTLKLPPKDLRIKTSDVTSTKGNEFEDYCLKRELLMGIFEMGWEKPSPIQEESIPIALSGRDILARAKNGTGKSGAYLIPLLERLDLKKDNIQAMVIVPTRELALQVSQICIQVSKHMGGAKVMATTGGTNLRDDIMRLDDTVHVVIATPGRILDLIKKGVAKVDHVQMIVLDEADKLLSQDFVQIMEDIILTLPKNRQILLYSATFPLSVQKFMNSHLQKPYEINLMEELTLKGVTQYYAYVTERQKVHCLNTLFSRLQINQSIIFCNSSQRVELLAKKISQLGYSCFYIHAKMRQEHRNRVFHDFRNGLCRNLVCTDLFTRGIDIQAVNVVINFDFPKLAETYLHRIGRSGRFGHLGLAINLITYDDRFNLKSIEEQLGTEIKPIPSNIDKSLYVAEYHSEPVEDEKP
UniProt Q9H4E7, whole entry, looked up: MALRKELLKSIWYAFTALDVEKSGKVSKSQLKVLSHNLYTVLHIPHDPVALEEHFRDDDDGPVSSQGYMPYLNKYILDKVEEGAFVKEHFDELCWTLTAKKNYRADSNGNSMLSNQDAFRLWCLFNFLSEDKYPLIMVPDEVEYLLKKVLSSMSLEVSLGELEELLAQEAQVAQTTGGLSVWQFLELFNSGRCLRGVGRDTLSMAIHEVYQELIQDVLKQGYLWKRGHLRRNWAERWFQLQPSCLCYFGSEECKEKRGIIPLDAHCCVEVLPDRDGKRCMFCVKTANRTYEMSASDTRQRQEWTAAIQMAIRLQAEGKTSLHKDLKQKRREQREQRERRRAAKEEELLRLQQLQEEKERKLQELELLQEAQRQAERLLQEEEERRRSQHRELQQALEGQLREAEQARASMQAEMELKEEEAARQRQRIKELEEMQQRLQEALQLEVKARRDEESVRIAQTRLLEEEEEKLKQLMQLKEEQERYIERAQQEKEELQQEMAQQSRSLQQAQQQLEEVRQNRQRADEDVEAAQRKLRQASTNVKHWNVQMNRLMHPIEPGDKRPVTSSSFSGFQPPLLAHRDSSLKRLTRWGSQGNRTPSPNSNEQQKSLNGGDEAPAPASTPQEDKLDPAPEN
UniProt Q9BUQ8: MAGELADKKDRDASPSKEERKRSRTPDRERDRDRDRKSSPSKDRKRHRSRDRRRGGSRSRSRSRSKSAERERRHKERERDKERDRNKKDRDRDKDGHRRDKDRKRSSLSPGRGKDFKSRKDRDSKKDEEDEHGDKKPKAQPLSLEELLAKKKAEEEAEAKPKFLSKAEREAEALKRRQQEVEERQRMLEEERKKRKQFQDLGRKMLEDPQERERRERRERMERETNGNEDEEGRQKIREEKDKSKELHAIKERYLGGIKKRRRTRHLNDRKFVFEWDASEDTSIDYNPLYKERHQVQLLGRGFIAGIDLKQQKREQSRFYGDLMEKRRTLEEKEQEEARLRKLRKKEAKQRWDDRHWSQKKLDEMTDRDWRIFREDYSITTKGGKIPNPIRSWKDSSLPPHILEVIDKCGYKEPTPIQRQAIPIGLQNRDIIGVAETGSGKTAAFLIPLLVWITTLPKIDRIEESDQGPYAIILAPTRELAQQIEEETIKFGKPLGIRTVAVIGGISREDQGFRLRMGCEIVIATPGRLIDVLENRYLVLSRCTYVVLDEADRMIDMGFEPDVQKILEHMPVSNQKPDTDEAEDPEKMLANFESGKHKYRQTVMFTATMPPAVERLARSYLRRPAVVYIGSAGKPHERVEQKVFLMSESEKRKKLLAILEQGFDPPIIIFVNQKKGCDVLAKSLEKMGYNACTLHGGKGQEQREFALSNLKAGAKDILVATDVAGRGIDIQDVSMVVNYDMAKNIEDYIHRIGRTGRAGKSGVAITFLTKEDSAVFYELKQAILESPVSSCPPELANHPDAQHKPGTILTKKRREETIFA
UniProt Q7Z4W1: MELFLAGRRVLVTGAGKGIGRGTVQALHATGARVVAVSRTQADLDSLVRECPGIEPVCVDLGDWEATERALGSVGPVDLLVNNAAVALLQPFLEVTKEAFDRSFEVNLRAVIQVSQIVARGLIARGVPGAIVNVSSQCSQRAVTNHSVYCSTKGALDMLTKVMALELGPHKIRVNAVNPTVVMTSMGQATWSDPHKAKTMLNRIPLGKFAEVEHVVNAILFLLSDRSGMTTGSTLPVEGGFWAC
UniProt Q8TEH3: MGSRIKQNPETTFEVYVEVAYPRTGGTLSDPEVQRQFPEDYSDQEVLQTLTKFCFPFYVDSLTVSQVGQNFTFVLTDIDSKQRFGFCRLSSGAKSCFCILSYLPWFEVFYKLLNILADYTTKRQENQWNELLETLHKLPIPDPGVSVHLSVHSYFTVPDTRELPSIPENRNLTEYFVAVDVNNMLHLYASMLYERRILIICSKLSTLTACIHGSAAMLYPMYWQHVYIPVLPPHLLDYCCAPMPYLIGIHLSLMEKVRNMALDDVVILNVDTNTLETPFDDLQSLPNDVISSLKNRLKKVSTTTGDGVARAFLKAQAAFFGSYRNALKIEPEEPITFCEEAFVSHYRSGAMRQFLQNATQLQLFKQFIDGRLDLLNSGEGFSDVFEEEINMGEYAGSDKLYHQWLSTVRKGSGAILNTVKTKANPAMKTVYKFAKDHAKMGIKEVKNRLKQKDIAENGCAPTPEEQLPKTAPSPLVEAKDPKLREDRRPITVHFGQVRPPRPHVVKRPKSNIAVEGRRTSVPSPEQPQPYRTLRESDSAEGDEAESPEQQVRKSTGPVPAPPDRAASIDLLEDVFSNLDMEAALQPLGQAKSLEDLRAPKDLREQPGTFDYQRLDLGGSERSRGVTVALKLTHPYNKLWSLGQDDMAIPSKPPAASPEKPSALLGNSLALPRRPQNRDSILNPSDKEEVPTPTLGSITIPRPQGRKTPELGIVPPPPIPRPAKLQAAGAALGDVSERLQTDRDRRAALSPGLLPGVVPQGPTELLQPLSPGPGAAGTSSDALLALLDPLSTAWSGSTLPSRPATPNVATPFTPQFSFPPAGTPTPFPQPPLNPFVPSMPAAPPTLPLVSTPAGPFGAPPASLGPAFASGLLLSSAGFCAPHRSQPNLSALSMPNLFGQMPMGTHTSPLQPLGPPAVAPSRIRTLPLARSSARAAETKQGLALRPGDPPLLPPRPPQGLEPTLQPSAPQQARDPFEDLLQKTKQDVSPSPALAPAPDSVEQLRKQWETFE

Compound: CC1Cc2ccccc2N1C(=O)C1CCCN(C1)C(=O)CCl (mixture of isomers) [TRIM25 ligand 11 (diastereomer mixture)]
Assay: probe-labelled cysteine peptide fold change vs DMSO (competition) (log2 fold change); higher = less target engagement (more negative = stronger competition)
Conditions: THP-1, incubation time: 4 h
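Further: competitive chemoproteomic profiling in live THP-1 cells with an iodoacetamide desthiobiotin (IA-DTB) probe, comparing probe-labelled peptide intensities in compound-treated cells against DMSO-treated controls.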

| Target | probe-labelled cysteine peptide fold change (10 µM) | probe-labelled cysteine peptide fold change (50 µM) |
| --- | --- | --- |
| DFFA_O00273_47_ACDILAIDK (UniProt O00273) | -0.0219 | -0.13 |
| DDX41_Q9UJV9_427_MVYLLECLQK (UniProt Q9UJV9) | 0.0639 | 0.0704 |
| DENND4B_O75064_165_AAEGAGLHALGITDLCLVLPSK (UniProt O75064) | -0.0265 | 0.104 |
| DDX24_Q9GZR7_639_LEDCVLLATDVAAR (UniProt Q9GZR7) | 0.0579 | 0.0986 |
| DDAH2_O95865_176_GLCGMGGPR (UniProt O95865) | -0.108 | -0.289 |
| DDX18_Q9NVP1_329_NLQCLVIDEADRILDVGFEEELK (UniProt Q9NVP1) | -0.227 | -0.196 |
| DDX39A_O00148_164_KNCPHVVVGTPGR (UniProt O00148) | -0.131 | -0.0999 |
| DDB2_Q92466_322_VYSASQWDCPLGLIPHPHR (UniProt Q92466) | 0.0907 | -0.0149 |
| DDX21_Q9NR30_445_TIIFCETK (UniProt Q9NR30) | 0.124 | 0.214 |
| DDX5_P17844_354_CDELTR (UniProt P17844) | -0.036 | 0.0644 |
| DDA1_Q9BW61_25_FHADSVCK (UniProt Q9BW61) | -0.197 | -0.451 |
| DDX46_Q7L014_501_GAEIIVCTPGR (UniProt Q7L014) | 0.0178 | 0.0119 |
| DDX56_Q9NY93_518_KLSSSCR (UniProt Q9NY93) | -0.00876 | -0.325 |
| DDX41_Q9UJV9_540_ACDESVLMDLK (UniProt Q9UJV9) | -0.0247 | -0.111 |
| DDX46_Q7L014_696_HLILVVNYSCPNHYEDYVHR (UniProt Q7L014) | 0.00951 | 0.0461 |
| DDX6_P26196_102_GNEFEDYCLK (UniProt P26196) | 0.043 | -0.134 |
| DDX46_Q7L014_646_ASYPCMSLHGGIDQYDR (UniProt Q7L014) | 0.163 | -0.0545 |
| DDX39A_O00148_197_HFVLDECDK (UniProt O00148) | -0.0844 | 0.0348 |
| DDX21_Q9NR30_291_KLSVACFYGGTPYGGQFER (UniProt Q9NR30) | -0.472 | -0.15 |

| Target | probe-labelled cysteine peptide fold change (10 µM) | probe-labelled cysteine peptide fold change (50 µM) |
| --- | --- | --- |
| DEF6_Q9H4E7_267_RGIIPLDAHCCVEVLPDRDGK (UniProt Q9H4E7) | 0.0111 | 0.222 |
| DDX23_Q9BUQ8_677_GCDVLAK (UniProt Q9BUQ8) | -0.081 | -0.0204 |
| DDX3X_O00571_317_GCHLLVATPGR (UniProt O00571) | -0.0548 | 0.0612 |
| DDX58_O95786_680_CILDAFK (UniProt O95786) | -0.00252 | 0.00883 |
| DGKA_P23743_253_ALPCEVSTYAK (UniProt P23743) | -0.119 | -0.0402 |
| DDX1_Q92499_406_LQVIVCSATLHSFDVK (UniProt Q92499) | 0.000348 | 0.0541 |
| DDX24_Q9GZR7_620_VLDIMPLTLHACMHQK (UniProt Q9GZR7) | -0.0149 | 0.0466 |
| DEPDC5_O75140_966_ITEGEAHCDIYGDRPR (UniProt O75140) | 0.15 | 0.0134 |
| DENND1B_Q6P3S1_52_FCFPFDVER (UniProt Q6P3S1) | 0.0197 | 0.0824 |
| DCTPP1_Q9H773_110_CRVDLPLAVLSK (UniProt Q9H773) | -0.361 | -0.184 |
| DGLUCY_Q7Z3D6-2_165_TTVPCVTHAGFCCPLVVTMRPIPK (UniProt Q7Z3D6) | -0.0708 | -0.0407 |
| DDX39A_O00148_62_AIVDCGFEHPSEVQHECIPQAILGMDVLCQAK (UniProt O00148) | 0.064 | 0.0582 |
| DDX46_Q7L014_377_SWVQCGISMK (UniProt Q7L014) | 0.156 | 0.0569 |
| DDX23_Q9BUQ8_519_MGCEIVIATPGR (UniProt Q9BUQ8) | 0.21 | 0.19 |
| DCXR_Q7Z4W1_58_ECPGIEPVCVDLGDWEATER (UniProt Q7Z4W1) | 0.146 | 0.353 |
| DDX27_Q96GQ7_316+321_QLAQFCNITTCLAVGGLDVK (UniProt Q96GQ7) | -0.0147 | 0.186 |
| DEF6_Q9H4E7_246_WFQLQPSCLCYFGSEECK (UniProt Q9H4E7) | -0.0358 | 0.14 |
| DENND1A_Q8TEH3_459_DIAENGCAPTPEEQLPK (UniProt Q8TEH3) | -0.0198 | -0.195 |
